According to publication doi:10.1101/2022.06.17.496577:
Results are given in words; binding and its absence hold for the method and conditions named. In cells and extracts the contact can be indirect. Some entries that bind do so weakly or less than the wild type. For some assays here: Tags and fused reporters may be left off the sequences shown.

Protein sequences, listed by entry. Tags and fused reporters are not part of them.
UniProt Q96JI7: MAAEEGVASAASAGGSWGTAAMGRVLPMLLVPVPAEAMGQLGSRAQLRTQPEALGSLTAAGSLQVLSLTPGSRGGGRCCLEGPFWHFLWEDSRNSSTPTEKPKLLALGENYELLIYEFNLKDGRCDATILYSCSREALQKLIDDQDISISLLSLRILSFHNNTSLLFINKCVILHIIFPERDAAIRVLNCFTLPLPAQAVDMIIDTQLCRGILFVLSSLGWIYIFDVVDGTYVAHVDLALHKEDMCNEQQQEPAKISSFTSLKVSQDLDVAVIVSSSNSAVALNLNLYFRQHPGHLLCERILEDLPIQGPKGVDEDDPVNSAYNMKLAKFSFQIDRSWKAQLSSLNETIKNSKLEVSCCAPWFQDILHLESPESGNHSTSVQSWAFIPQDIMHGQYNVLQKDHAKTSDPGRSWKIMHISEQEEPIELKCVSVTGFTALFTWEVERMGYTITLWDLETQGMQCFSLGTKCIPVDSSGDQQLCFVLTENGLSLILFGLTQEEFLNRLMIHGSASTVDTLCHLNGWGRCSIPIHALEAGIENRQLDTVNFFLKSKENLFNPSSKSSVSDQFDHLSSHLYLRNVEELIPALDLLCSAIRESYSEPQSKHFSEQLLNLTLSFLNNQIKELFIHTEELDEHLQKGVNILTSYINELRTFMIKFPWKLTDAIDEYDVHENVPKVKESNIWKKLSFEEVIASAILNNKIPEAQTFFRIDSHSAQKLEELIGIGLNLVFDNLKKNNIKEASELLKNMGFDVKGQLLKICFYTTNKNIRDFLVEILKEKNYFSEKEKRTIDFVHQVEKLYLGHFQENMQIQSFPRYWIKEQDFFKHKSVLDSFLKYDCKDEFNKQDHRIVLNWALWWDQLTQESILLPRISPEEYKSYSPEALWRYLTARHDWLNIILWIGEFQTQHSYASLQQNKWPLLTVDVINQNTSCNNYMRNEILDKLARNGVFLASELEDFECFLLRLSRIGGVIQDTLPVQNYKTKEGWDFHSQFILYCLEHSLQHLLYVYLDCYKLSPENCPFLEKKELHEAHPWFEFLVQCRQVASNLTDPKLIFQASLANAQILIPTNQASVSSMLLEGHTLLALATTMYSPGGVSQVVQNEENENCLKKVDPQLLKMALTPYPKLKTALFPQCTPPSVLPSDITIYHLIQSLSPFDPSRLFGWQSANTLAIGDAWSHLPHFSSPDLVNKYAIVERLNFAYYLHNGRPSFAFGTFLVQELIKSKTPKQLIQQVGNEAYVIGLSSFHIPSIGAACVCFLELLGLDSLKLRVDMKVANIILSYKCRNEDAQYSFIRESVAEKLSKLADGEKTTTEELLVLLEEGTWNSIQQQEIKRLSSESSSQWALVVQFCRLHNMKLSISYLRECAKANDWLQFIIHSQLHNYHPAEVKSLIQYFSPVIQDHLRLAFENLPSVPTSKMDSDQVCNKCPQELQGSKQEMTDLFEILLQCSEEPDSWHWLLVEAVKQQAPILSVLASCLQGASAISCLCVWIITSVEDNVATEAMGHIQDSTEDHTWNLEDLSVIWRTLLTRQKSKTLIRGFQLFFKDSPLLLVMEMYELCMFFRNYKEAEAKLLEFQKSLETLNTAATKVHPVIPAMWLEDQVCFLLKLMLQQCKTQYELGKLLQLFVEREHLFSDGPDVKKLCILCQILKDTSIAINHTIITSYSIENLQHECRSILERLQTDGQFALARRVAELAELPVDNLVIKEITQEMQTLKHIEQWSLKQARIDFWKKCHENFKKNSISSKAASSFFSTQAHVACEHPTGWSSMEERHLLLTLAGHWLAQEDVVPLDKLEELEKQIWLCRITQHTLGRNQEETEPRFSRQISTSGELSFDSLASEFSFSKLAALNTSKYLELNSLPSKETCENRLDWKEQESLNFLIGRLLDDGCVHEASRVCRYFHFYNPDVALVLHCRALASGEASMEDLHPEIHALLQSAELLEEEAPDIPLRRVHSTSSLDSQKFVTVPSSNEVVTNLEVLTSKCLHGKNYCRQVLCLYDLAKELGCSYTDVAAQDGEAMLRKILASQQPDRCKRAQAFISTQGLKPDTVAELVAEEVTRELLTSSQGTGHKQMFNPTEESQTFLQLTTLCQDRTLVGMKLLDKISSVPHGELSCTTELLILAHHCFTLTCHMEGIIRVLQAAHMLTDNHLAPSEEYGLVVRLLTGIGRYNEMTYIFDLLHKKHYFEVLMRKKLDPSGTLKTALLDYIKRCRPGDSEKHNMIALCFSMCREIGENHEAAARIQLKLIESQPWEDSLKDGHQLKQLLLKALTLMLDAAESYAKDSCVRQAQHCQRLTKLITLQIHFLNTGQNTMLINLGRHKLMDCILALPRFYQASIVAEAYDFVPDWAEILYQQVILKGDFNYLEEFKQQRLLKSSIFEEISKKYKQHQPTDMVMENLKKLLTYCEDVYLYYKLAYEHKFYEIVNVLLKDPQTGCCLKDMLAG
UniProt O08788: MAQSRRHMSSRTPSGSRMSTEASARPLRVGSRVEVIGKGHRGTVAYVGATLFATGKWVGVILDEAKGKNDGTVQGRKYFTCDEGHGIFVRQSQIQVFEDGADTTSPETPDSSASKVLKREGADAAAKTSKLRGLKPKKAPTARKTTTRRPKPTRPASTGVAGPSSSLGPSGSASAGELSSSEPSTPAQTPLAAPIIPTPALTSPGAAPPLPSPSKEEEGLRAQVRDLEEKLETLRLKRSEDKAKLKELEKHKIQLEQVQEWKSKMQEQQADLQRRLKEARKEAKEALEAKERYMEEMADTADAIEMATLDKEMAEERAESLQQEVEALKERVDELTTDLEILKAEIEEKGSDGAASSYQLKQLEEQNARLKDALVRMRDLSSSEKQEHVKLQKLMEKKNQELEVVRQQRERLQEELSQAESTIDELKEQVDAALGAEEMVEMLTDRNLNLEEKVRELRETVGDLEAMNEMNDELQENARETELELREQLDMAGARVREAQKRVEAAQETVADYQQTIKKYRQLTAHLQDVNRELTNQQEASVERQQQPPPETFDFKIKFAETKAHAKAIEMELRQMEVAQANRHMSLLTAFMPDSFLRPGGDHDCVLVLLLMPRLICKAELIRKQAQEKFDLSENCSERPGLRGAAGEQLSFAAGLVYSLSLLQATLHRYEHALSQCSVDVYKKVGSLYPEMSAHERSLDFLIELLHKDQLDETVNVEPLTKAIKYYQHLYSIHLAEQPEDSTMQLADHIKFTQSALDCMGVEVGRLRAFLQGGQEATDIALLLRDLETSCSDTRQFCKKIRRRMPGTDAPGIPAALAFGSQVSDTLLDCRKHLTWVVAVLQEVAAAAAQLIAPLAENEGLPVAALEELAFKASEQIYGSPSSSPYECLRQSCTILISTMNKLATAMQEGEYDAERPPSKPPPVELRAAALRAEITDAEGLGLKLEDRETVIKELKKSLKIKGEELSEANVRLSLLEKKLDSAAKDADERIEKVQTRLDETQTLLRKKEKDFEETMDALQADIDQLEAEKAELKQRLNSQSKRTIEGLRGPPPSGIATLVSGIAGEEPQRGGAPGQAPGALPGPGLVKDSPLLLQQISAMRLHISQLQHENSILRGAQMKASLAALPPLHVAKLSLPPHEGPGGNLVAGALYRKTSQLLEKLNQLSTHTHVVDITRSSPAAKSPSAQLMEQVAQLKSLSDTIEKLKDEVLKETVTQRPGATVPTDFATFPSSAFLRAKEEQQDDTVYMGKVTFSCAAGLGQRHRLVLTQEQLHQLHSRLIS
UniProt Q5DU37: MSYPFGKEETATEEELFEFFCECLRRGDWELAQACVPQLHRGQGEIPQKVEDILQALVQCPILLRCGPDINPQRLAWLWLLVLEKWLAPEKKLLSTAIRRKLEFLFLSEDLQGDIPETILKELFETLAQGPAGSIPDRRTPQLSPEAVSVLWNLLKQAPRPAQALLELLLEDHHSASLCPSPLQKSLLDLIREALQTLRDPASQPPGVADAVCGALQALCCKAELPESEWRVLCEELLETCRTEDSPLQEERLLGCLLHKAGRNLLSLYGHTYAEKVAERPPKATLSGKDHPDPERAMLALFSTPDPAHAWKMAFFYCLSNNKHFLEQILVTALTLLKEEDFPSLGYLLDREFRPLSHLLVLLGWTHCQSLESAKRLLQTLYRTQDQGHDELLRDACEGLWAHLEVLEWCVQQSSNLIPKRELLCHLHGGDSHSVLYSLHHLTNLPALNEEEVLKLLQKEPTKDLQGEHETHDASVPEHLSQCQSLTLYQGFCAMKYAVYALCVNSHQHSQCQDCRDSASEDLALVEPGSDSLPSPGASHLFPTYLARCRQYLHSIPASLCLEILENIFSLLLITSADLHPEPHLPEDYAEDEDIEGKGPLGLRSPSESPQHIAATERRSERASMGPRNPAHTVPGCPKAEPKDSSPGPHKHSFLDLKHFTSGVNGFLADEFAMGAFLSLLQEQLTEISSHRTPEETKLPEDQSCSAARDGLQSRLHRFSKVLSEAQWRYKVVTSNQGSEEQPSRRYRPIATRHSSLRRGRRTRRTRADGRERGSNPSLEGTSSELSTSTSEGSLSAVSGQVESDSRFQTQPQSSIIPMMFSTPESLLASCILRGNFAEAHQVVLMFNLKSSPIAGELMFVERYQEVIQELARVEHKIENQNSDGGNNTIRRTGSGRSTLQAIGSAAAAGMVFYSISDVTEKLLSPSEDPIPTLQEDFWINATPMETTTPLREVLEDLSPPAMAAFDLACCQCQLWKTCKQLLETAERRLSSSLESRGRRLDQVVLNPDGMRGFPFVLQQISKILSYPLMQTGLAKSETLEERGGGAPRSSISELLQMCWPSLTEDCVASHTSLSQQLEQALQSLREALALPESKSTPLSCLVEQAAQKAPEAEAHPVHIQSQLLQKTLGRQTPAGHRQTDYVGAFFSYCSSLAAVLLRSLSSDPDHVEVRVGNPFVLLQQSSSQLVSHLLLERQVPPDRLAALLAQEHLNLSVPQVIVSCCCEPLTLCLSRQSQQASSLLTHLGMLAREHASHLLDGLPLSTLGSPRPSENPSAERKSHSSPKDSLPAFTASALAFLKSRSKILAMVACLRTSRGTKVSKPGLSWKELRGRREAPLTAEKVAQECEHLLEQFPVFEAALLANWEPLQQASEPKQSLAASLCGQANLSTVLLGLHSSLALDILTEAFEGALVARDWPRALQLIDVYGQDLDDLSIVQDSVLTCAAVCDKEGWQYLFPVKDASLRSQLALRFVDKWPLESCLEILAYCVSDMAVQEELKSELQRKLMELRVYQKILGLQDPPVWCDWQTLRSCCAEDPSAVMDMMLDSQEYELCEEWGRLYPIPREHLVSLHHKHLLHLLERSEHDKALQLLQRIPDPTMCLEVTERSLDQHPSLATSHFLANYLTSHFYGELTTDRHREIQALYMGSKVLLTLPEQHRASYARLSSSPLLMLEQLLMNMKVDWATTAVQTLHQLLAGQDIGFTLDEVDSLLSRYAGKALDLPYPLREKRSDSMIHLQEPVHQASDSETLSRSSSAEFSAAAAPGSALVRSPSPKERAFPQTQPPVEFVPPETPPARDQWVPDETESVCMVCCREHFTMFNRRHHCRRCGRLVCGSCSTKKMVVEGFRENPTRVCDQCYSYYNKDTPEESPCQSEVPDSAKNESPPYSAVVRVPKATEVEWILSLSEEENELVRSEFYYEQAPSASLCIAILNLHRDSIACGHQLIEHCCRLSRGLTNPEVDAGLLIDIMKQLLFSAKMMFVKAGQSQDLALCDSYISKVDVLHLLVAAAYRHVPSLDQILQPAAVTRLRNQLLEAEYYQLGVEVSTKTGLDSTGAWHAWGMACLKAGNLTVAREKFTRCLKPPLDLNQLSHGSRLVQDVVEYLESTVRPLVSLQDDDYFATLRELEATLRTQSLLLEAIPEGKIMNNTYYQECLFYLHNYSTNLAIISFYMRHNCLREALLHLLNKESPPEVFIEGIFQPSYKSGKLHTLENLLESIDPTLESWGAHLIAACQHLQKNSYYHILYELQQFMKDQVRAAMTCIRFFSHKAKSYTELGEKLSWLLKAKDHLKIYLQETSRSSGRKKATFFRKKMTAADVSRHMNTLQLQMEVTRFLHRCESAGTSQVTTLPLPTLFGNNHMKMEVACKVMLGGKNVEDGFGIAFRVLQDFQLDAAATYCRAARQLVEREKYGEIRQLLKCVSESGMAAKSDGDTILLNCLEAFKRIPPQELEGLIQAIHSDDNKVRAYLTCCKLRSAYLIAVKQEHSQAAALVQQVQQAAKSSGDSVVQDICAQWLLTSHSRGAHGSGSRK

T1: GFP-AP5Z1 (UniProt O43299)
T1 sequence: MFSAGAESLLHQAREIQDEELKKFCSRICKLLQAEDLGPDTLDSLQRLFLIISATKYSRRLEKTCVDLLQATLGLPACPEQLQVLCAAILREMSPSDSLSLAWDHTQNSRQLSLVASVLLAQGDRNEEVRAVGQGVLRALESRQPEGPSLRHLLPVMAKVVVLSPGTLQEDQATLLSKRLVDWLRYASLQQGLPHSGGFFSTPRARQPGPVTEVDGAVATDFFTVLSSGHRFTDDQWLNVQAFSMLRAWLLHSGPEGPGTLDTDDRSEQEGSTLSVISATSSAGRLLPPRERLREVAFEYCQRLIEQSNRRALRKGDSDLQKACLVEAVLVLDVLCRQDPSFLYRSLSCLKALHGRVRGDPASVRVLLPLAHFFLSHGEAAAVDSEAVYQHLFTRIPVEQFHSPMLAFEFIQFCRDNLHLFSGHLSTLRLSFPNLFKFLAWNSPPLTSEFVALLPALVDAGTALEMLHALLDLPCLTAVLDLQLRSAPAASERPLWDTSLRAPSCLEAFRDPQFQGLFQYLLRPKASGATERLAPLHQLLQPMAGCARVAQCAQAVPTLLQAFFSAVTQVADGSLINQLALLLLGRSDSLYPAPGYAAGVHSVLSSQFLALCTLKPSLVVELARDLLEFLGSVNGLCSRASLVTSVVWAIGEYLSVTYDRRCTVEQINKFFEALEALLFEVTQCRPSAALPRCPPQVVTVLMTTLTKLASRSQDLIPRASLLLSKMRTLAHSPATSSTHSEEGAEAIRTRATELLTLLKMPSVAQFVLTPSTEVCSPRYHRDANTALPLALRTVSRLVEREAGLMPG

B1: AP5Z1 (endogenous in MEFs) (protein, UniProt Q3U829 1-807)
chain: MFSAGAESLLHQAREIQDEELRRFCSRVTKLLQEAPGPATVDALQRLFLIVSATKYPRRLEKMCVDLLQTTLCLPASPEQLQVLCAAILREMSPFNDLALSCDHTPNTRQLSLVASVLLAQGDRKGEIRCVSQRIFKILENRQPEGPSVRPLLPILSKVIGLAPGILMEDQTNLLSKRLVDWLRYASIQQGLPYSGGFFSTPRTRQPGPITEVDGAVASDFFTVLSTGQHFTEDQWVNMQAFSMLRKWLLHSGPEDPCSPDADDKSELEGSTLSVLSAASTASRLLPPRERLREVAFEYCQRLLEQSNRRALRKGDSDLQKACLVEAVSVLDVLCRQDPSFLYRTLSCLKALHRRLGEDPGSERALVPLAQFFLNHGEAAAMDAEAVYGQLLRGLPSERFHSPTLAFEVIHFCTHNLALFDSHFLSLLRLSFPSLFKFLAWNSPPLTAEFVVLLPALVDAGTAVEMLHALLDLPCLTAALDLQLRSTQTPSERLLWDISLRVPSCLEAFQDPQFQGLFRHLLRTKASGSTERLTPLHQVLKPMASCARVTQCAEAVPVLLQAFFSAVTQTADGALINQLALLLLERSDSLYPVPQYEARVHGVLSSQLLVLCKLKPSLVVELSRELLEFVGSVSSIHSRASVFTCVVWAIGEYLSVTWDKRCTAEQINKFFEALEALLFEVTQSRPLADLPCCPPEVVTALMTTLTKLASRSQDLIPRVSLFLSKMRTLAQNPATSSVHSEEGAESIRTRASELLTLLKMPSVAQFVFTPPAGVCQPRYHRDTNVALPLALRTVSRLVEKEAGLLPG
B2: AP5Z1, overexpressed (Figure 5D) (protein, UniProt O43299 1-807)
chain: MFSAGAESLLHQAREIQDEELKKFCSRICKLLQAEDLGPDTLDSLQRLFLIISATKYSRRLEKTCVDLLQATLGLPACPEQLQVLCAAILREMSPSDSLSLAWDHTQNSRQLSLVASVLLAQGDRNEEVRAVGQGVLRALESRQPEGPSLRHLLPVMAKVVVLSPGTLQEDQATLLSKRLVDWLRYASLQQGLPHSGGFFSTPRARQPGPVTEVDGAVATDFFTVLSSGHRFTDDQWLNVQAFSMLRAWLLHSGPEGPGTLDTDDRSEQEGSTLSVISATSSAGRLLPPRERLREVAFEYCQRLIEQSNRRALRKGDSDLQKACLVEAVLVLDVLCRQDPSFLYRSLSCLKALHGRVRGDPASVRVLLPLAHFFLSHGEAAAVDSEAVYQHLFTRIPVEQFHSPMLAFEFIQFCRDNLHLFSGHLSTLRLSFPNLFKFLAWNSPPLTSEFVALLPALVDAGTALEMLHALLDLPCLTAVLDLQLRSAPAASERPLWDTSLRAPSCLEAFRDPQFQGLFQYLLRPKASGATERLAPLHQLLQPMAGCARVAQCAQAVPTLLQAFFSAVTQVADGSLINQLALLLLGRSDSLYPAPGYAAGVHSVLSSQFLALCTLKPSLVVELARDLLEFLGSVNGLCSRASLVTSVVWAIGEYLSVTYDRRCTVEQINKFFEALEALLFEVTQCRPSAALPRCPPQVVTVLMTTLTKLASRSQDLIPRASLLLSKMRTLAHSPATSSTHSEEGAEAIRTRATELLTLLKMPSVAQFVLTPSTEVCSPRYHRDANTALPLALRTVSRLVEREAGLMPG

Legend:
spatacsin-V5 (human) = spatacsin-V5 (human) (UniProt Q96JI7); test: proximity ligation
GFP-AP5Z1 = biological target: T1, GFP-AP5Z1; test: co-IP
spatacsin-GFP (human) = spatacsin-GFP (human) (UniProt Q96JI7); test: co-IP

Row | Molecule | binding (spatacsin-GFP (human)) | also measured
1 | spastizin-HA (from UniProt Q68DK2 1-2539) |  | binding (spatacsin-V5 (human)): binds
2 | p150^Glued (dynein/dynactin subunit) (from UniProt O08788 1-1281) |  | binding (GFP-AP5Z1): binds
3 | spastizin (endogenous in MEFs) (from UniProt Q5DU37 1-2529) | binds | 
4 | B1 | binds | 
5 | B2 | binds | 
